{
  "source": "the supplement of paper PMC8728848",
  "binders": {"B1": {"name": "Blon2355mut (Bifidobacterium longum) (protein)", "chain": "MVQEPTLEWHVIPEPTNVEPLVGTCSLPLSGTVVEQRGADDAEAVFARQLVDDIKRVCGGRWQVASGEVQREVTLRTSPSLDDWSYVLEVSPDGVVITGSGFEGVRDGVQTLRQIIRQIGLTIPCMVIRDRPAFSTRGYYLDVTRGRVPSMAWLKSWVDRLCFYKYNQFQLYIEHTFQFNGLSEVWRGADPLTSSDILELDSYCAARGIELVPSVSTFGHHYTALRTRQLRDLGEFPEDADRPFSLIERMTHHTLNITDERSYEFSTSLIDELMPLFRSRKFNICANETFDLGKGRSKQESAKRGVGAMYADFVERLCRHVDDRGHDVMVWADVALEHPEIIDTLPKNITWLNWQYEPNVDDGTTAALADAGATQMVCPAVWCWNALIPRIDDAWNNITRMARHGRAHDVSGMLVTDWGDFGHVNDPRMSVPGMIFGAQQSWNPDAELSEVDMLSRISTIEYGDHTGSVVGALRGASAKGGFSWSDLVTYLELDDGRGGCNTEIVRVMGCLEAYRNDLPQSGQARLADARVSMLRTLRDSILAGRELNGKLDDAAKDITQLLRVAGDPSSAAVWSLAIDGQRLLNRVGLALLAAHGVVRQDEAGIDAAKLADELECWTEQYSRLWHEVSRQSELARIQHVVWRAADVLRSI"}},
  "experiment_in_all_cases": "glycan array binding signal (z-score within array); higher = stronger binding",
  "settings_in_all_cases": "glycan notation: IUPAC condensed, linker removed",
  "key": {"Gal(b1-4)Glc6S": {"target": "Gal(b1-4)Glc6S", "outline": "(§1)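 Glycan array binding is given as a within-array Z-score, which can be read as non-binding when negative. The arrays, 3228 of them, came from the Consortium for Functional Glycomics database and were retained only where the protein sequence was available. Z-scores were averaged across arrays of the same protein sequence at different concentrations or buffers and across linkers.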"}, "Gal(b1-4)GlcNAc": {"target": "Gal(b1-4)GlcNAc", "outline": "as §1"}, "[1]": {"target": "Gal(b1-4)GlcNAc(a1-6)Gal(b1-4)GlcNAc", "outline": "as §1"}, "Gal(b1-4)GlcNAc(b1-2)Man": {"target": "Gal(b1-4)GlcNAc(b1-2)Man", "outline": "as §1"}, "[2]": {"target": "Gal(b1-4)GlcNAc(b1-2)Man(a1-3)Man(b1-4)GlcNAc(b1-4)GlcNAc", "outline": "as §1"}, "[3]": {"target": "Gal(b1-4)GlcNAc(b1-2)Man(a1-3)[Gal(b1-4)GlcNAc(b1-2)Man(a1-6)]Man(b1-4)GlcNAc(b1-4)GlcNAc", "outline": "as §1"}, "[4]": {"target": "Gal(b1-4)GlcNAc(b1-2)Man(a1-3)[Gal(b1-4)GlcNAc(b1-2)Man(a1-6)]Man(b1-4)GlcNAc(b1-4)[Fuc(a1-6)]GlcNAc", "outline": "as §1"}, "[5]": {"target": "Gal(b1-4)GlcNAc(b1-2)Man(a1-3)[Gal(b1-4)GlcNAc(b1-2)Man(a1-6)][Gal(b1-4)GlcNAc(b1-4)]Man(b1-4)GlcNAc(b1-4)[Fuc(a1-6)]GlcNAc", "outline": "as §1"}, "[6]": {"target": "Gal(b1-4)GlcNAc(b1-2)Man(a1-3)[Gal(b1-4)GlcNAc(b1-2)Man(a1-6)][GlcNAc(b1-4)]Man(b1-4)GlcNAc(b1-4)[Fuc(a1-6)]GlcNAc", "outline": "as §1"}, "[7]": {"target": "Gal(b1-4)GlcNAc(b1-2)Man(a1-3)[GlcNAc(b1-2)Man(a1-6)]Man(b1-4)GlcNAc(b1-4)GlcNAc", "outline": "as §1"}, "[8]": {"target": "Gal(b1-4)GlcNAc(b1-2)Man(a1-3)[GlcNAc(b1-4)][Gal(b1-4)GlcNAc(b1-2)Man(a1-6)]Man(b1-4)GlcNAc(b1-4)GlcNAc", "outline": "as §1"}, "[9]": {"target": "Gal(b1-4)GlcNAc(b1-2)Man(a1-3)[Man(a1-6)]Man(b1-4)GlcNAc(b1-4)GlcNAc", "outline": "as §1"}, "[10]": {"target": "Gal(b1-4)GlcNAc(b1-2)Man(a1-6)Man(b1-4)GlcNAc(b1-4)GlcNAc", "outline": "as §1"}, "[11]": {"target": "Gal(b1-4)GlcNAc(b1-2)Man(a1-6)[GlcNAc(b1-2)Man(a1-3)]Man(b1-4)GlcNAc(b1-4)GlcNAc", "outline": "as §1"}, "[12]": {"target": "Gal(b1-4)GlcNAc(b1-2)Man(a1-6)[Man(a1-3)]Man(b1-4)GlcNAc(b1-4)GlcNAc", "outline": "as §1"}, "[13]": {"target": "Gal(b1-4)GlcNAc(b1-2)[Gal(b1-4)GlcNAc(b1-4)]Man(a1-3)[Gal(b1-4)GlcNAc(b1-2)Man(a1-6)]Man(b1-4)GlcNAc(b1-4)GlcNAc", "outline": "as §1"}, "[14]": {"target": "Gal(b1-4)GlcNAc(b1-2)[Gal(b1-4)GlcNAc(b1-4)]Man(a1-3)[Gal(b1-4)GlcNAc(b1-2)[Gal(b1-4)GlcNAc(b1-6)]Man(a1-6)]Man(b1-4)GlcNAc(b1-4)GlcNAc", "outline": "as §1"}, "[15]": {"target": "Gal(b1-4)GlcNAc(b1-2)[Gal(b1-4)GlcNAc(b1-4)]Man(a1-3)[GlcNAc(b1-4)][Gal(b1-4)GlcNAc(b1-2)Man(a1-6)]Man(b1-4)GlcNAc(b1-4)GlcNAc", "outline": "as §1"}, "[16]": {"target": "Gal(b1-4)GlcNAc(b1-2)[Gal(b1-4)GlcNAc(b1-4)]Man(a1-3)[GlcNAc(b1-4)][Gal(b1-4)GlcNAc(b1-2)[Gal(b1-4)GlcNAc(b1-6)]Man(a1-6)]Man(b1-4)GlcNAc(b1-4)GlcNAc", "outline": "as §1"}, "[17]": {"target": "Gal(b1-4)GlcNAc(b1-2)[Gal(b1-4)GlcNAc(b1-6)]Man(a1-6)[Gal(b1-4)GlcNAc(b1-2)Man(a1-3)]Man(b1-4)GlcNAc(b1-4)GlcNAc", "outline": "as §1"}, "[18]": {"target": "Gal(b1-4)GlcNAc(b1-2)[Gal(b1-4)GlcNAc(b1-6)]Man(a1-6)[Gal(b1-4)GlcNAc(b1-2)Man(a1-3)]Man(b1-4)GlcNAc(b1-4)[Fuc(a1-6)]GlcNAc", "outline": "as §1"}, "[19]": {"target": "Gal(b1-4)GlcNAc(b1-2)[Gal(b1-4)GlcNAc(b1-6)]Man(a1-6)[GlcNAc(b1-4)][Gal(b1-4)GlcNAc(b1-2)Man(a1-3)]Man(b1-4)GlcNAc(b1-4)GlcNAc", "outline": "as §1"}, "[20]": {"target": "Gal(b1-4)GlcNAc(b1-2)[Gal(b1-4)GlcNAc(b1-6)]Man(a1-6)[GlcNAc(b1-4)][Gal(b1-4)GlcNAc(b1-2)[Gal(b1-4)GlcNAc(b1-4)]Man(a1-3)]Man(b1-4)GlcNAc(b1-4)[Fuc(a1-6)]GlcNAc", "outline": "as §1"}, "[21]": {"target": "Gal(b1-4)GlcNAc(b1-3)Gal(b1-3)GalNAc", "outline": "as §1"}, "[22]": {"target": "Gal(b1-4)GlcNAc(b1-3)Gal(b1-3)GlcNAc", "outline": "as §1"}, "[23]": {"target": "Gal(b1-4)GlcNAc(b1-3)Gal(b1-4)Glc", "outline": "as §1"}, "[24]": {"target": "Gal(b1-4)GlcNAc(b1-3)Gal(b1-4)GlcNAc", "outline": "as §1"}, "[25]": {"target": "Gal(b1-4)GlcNAc(b1-3)Gal(b1-4)GlcNAc(b1-2)Man(a1-3)[Gal(b1-4)GlcNAc(b1-3)Gal(b1-4)GlcNAc(b1-2)Man(a1-6)]Man(b1-4)GlcNAc(b1-4)GlcNAc", "outline": "as §1"}, "[26]": {"target": "Gal(b1-4)GlcNAc(b1-3)Gal(b1-4)GlcNAc(b1-2)Man(a1-3)[Gal(b1-4)GlcNAc(b1-3)Gal(b1-4)GlcNAc(b1-2)Man(a1-6)]Man(b1-4)GlcNAc(b1-4)[Fuc(a1-6)]GlcNAc", "outline": "as §1"}, "[27]": {"target": "Gal(b1-4)GlcNAc(b1-3)Gal(b1-4)GlcNAc(b1-2)[Gal(b1-4)GlcNAc(b1-3)Gal(b1-4)GlcNAc(b1-6)]Man(a1-6)[Gal(b1-4)GlcNAc(b1-3)Gal(b1-4)GlcNAc(b1-2)Man(a1-3)]Man(b1-4)GlcNAc(b1-4)GlcNAc", "outline": "as §1"}},
  "note": "The other results are listed elsewhere or left out.",
  "data": [
    {"binder": "B1", "values": [
      {"measurement": "glycan array binding signal (z-score)", "setting": "Gal(b1-4)Glc6S", "result": 0.156},
      {"measurement": "glycan array binding signal (z-score)", "setting": "Gal(b1-4)GlcNAc", "result": -0.297},
      {"measurement": "glycan array binding signal (z-score)", "setting": "[1]", "result": -0.719},
      {"measurement": "glycan array binding signal (z-score)", "setting": "Gal(b1-4)GlcNAc(b1-2)Man", "result": -0.584},
      {"measurement": "glycan array binding signal (z-score)", "setting": "[2]", "result": -1.03},
      {"measurement": "glycan array binding signal (z-score)", "setting": "[3]", "result": -0.374},
      {"measurement": "glycan array binding signal (z-score)", "setting": "[4]", "result": -0.617},
      {"measurement": "glycan array binding signal (z-score)", "setting": "[5]", "result": -0.455},
      {"measurement": "glycan array binding signal (z-score)", "setting": "[6]", "result": -0.951},
      {"measurement": "glycan array binding signal (z-score)", "setting": "[7]", "result": -0.763},
      {"measurement": "glycan array binding signal (z-score)", "setting": "[8]", "result": -0.264},
      {"measurement": "glycan array binding signal (z-score)", "setting": "[9]", "result": -0.773},
      {"measurement": "glycan array binding signal (z-score)", "setting": "[10]", "result": -0.881},
      {"measurement": "glycan array binding signal (z-score)", "setting": "[11]", "result": -1.25},
      {"measurement": "glycan array binding signal (z-score)", "setting": "[12]", "result": -0.33},
      {"measurement": "glycan array binding signal (z-score)", "setting": "[13]", "result": -1.08},
      {"measurement": "glycan array binding signal (z-score)", "setting": "[14]", "result": -1.14},
      {"measurement": "glycan array binding signal (z-score)", "setting": "[15]", "result": -1.44},
      {"measurement": "glycan array binding signal (z-score)", "setting": "[16]", "result": 0.159},
      {"measurement": "glycan array binding signal (z-score)", "setting": "[17]", "result": -0.993},
      {"measurement": "glycan array binding signal (z-score)", "setting": "[18]", "result": -0.649},
      {"measurement": "glycan array binding signal (z-score)", "setting": "[19]", "result": -0.31},
      {"measurement": "glycan array binding signal (z-score)", "setting": "[20]", "result": -0.768},
      {"measurement": "glycan array binding signal (z-score)", "setting": "[21]", "result": -0.46},
      {"measurement": "glycan array binding signal (z-score)", "setting": "[22]", "result": -1.26},
      {"measurement": "glycan array binding signal (z-score)", "setting": "[23]", "result": 1.06},
      {"measurement": "glycan array binding signal (z-score)", "setting": "[24]", "result": -0.599},
      {"measurement": "glycan array binding signal (z-score)", "setting": "[25]", "result": 0.408},
      {"measurement": "glycan array binding signal (z-score)", "setting": "[26]", "result": -0.037},
      {"measurement": "glycan array binding signal (z-score)", "setting": "[27]", "result": 0.301}
    ]}
  ]
}
